B1: epsin EPN2 (protein, UniProt O95208 1-641)
chain: MTTSSIRRQMKNIVNNYSEAEIKVREATSNDPWGPSSSLMTEIADLTYNVVAFSEIMSMVWKRLNDHGKNWRHVYKALTLLDYLIKTGSERVAQQCRENIFAIQTLKDFQYIDRDGKDQGINVREKSKQLVALLKDEERLKAERAQALKTKERMAQVATGMGSNQITFGRGSSQPNLSTSHSEQEYGKAGGSPASYHGSPEASLCPQHRTGAPLGQSEELQPLSQRHPFLPHLGLASRPNGDWSQPCLTCDRAARATSPRVSSELEQARPQTSGEEELQLQLALAMSREVAEQEERLRRGDDLRLQMALEESRRDTVKIPKKKEHGSLPQQTTLLDLMDALPSSGPAAQKAEPWGPSASTNQTNPWGGPAAPASTSDPWPSFGTKPAASIDPWGVPTGATVQSVPKNSDPWAASQQPASSAGKRASDAWGAVSTTKPVSVSGSFELFSNLNGTIKDDFSEFDNLRTSKKTAESVTSLPSQNNGTTSPDPFESQPLTVASSKPSSARKTPESFLGPNAALVNLDSLVTRPAPPAQSLNPFLAPGAPATSAPVNPFQVNQPQPLTLNQLRGSPVLGTSTSFGPGPGVESMAVASMTSAAPQPALGATGSSLTPLGPAMMNMVGSVGIPPSAAQATGTTNPFLL
B2: epidermal growth factor receptor substrate 15 (EPS15) (protein, UniProt P42566 1-896)
chain: MAAAAQLSLTQLSSGNPVYEKYYRQVDTGNTGRVLASDAAAFLKKSGLPDLILGKIWDLADTDGKGILNKQEFFVALRLVACAQNGLEVSLSSLNLAVPPPRFHDTSSPLLISGTSAAELPWAVKPEDKAKYDAIFDSLSPVNGFLSGDKVKPVLLNSKLPVDILGRVWELSDIDHDGMLDRDEFAVAMFLVYCALEKEPVPMSLPPALVPPSKRKTWVVSPAEKAKYDEIFLKTDKDMDGFVSGLEVREIFLKTGLPSTLLAHIWSLCDTKDCGKLSKDQFALAFHLISQKLIKGIDPPHVLTPEMIPPSDRASLQKNIIGSSPVADFSAIKELDTLNNEIVDLQREKNNVEQDLKEKEDTIKQRTSEVQDLQDEVQRENTNLQKLQAQKQQVQELLDELDEQKAQLEEQLKEVRKKCAEEAQLISSLKAELTSQESQISTYEEELAKAREELSRLQQETAELEESVESGKAQLEPLQQHLQDSQQEISSMQMKLMEMKDLENHNSQLNWCSSPHSILVNGATDYCSLSTSSSETANLNEHVEGQSNLESEPIHQESPARSSPELLPSGVTDENEVTTAVTEKVCSELDNNRHSKEEDPFNVDSSSLTGPVADTNLDFFQSDPFVGSDPFKDDPFGKIDPFGGDPFKGSDPFASDCFFRQSTDPFATSSTDPFSAANNSSITSVETLKHNDPFAPGGTVVAASDSATDPFASVFGNESFGGGFADFSTLSKVNNEDPFRSATSSSVSNVVITKNVFEETSVKSEDEPPALPPKIGTPTRPCPLPPGKRSINKLDSPDPFKLNDPFQPFPGNDSPKEKDPEIFCDPFTSATTTTNKEADPSNFANFSAYPSEEDMIEWAKRESEREEEQRLARLNQQEQEDLELAIALSKSEISEA

By UniProt entry, the sequences of proteins in these tests, tags left out.
UniProt Q9UHD9: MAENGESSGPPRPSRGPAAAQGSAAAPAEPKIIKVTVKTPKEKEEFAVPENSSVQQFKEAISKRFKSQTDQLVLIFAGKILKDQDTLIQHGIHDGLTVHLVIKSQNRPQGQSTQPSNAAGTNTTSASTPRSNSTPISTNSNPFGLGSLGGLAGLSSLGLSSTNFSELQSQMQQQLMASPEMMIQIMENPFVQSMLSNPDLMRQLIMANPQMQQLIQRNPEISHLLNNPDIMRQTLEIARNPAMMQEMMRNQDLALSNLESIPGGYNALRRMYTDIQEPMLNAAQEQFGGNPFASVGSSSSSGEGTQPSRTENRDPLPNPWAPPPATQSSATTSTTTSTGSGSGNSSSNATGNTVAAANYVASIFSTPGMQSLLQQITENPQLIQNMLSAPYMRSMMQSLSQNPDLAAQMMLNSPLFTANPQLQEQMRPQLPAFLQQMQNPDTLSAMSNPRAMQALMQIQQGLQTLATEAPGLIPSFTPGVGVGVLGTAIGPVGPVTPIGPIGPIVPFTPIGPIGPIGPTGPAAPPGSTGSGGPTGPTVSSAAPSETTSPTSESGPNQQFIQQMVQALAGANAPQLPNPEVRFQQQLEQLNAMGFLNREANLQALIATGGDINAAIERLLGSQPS
UniProt Q9Y6I3: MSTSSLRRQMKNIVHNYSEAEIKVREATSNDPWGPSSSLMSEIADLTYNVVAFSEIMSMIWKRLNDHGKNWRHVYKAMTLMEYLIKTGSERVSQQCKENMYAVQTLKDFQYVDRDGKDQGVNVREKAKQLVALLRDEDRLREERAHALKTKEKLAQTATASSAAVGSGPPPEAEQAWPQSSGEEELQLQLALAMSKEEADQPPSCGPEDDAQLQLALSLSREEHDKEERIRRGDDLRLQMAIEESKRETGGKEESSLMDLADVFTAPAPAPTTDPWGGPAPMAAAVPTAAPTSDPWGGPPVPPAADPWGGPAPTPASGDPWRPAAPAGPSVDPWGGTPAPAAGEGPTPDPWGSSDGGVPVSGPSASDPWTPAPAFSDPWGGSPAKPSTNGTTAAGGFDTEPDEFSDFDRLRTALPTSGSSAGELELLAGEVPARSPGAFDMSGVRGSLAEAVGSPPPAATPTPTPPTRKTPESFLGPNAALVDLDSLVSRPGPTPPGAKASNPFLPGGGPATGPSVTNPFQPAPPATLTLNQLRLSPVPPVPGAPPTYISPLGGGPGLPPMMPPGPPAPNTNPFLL

Results are given in words; binding and its absence hold for the method and conditions named. Binding seen in cells or lysates may run through a third protein. A yes stands for co-enrichment or nearness to the bait. Other partners may have been found.

This experiment addresses V5-APEX2-UBQLN2 (human (cDNA from UBQLN2-expressing HEK 293 cells)) (UniProt Q9UHD9). Briefly: proximity labelling; V5-APEX2-UBQLN2 transfected into UBQLN1, 2, 4 TKO HEK 293 cells; 500 uM biotin-phenol 1 h, 1 mM hydrogen peroxide 1 min; streptavidin pulldown of biotinylated proteins, TMT LC-MS3; enrichment counted against APEX2-UBQLN1 samples.
As for epsin EPN1 (from UniProt Q9Y6I3 1-576), the binding entry is reported as “binds”.

As for B1, the binding result is recorded as “binds”.

For B2, the binding entry is given as “binds”.

(Values after PMC7873701.)
